Measurements as given in publication PMC4231735.
No constants are given. Whether binding was seen depends on the method and setting. In cells and extracts the contact can be indirect. Some results given as binding are weak or reduced against the parent protein; the word gives no strength. Tags and fused reporters may be left off the sequences shown.

Target: T1, TAP-tagged Rio1 (S. cerevisiae), Q12196
T1 chain: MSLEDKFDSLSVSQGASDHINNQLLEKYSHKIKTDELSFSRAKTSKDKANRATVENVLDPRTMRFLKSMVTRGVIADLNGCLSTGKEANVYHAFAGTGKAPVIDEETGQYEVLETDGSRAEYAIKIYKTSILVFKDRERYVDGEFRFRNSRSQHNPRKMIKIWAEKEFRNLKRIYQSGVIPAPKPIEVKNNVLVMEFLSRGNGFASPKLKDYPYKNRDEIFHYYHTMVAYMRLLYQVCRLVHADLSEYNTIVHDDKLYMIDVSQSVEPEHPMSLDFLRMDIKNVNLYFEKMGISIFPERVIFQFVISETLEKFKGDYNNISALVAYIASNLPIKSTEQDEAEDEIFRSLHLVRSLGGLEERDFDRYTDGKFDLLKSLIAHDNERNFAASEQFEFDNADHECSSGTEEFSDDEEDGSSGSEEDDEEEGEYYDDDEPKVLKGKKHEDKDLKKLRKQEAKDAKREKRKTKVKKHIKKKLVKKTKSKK
Assay: co-IP; tandem affinity purification (TAP) from strains expressing TAP-tagged bait; co-purified factors detected by Western blot
Conditions: remark: other sources report otherwise

B1: Nob1, Q08444 1-459 (protein)
chain: MTENQTAHVRALILDATPLITQSYTHYQNYAQSFYTTPTVFQEIKDAQARKNLEIWQSLGTLKLVHPSENSIAKVSTFAKLTGDYSVLSANDLHILALTYELEIKLNNGDWRLRKKPGDALDASKADVGTDGKQKLTEDNKKEEDSESVPKKKNKRRGGKKQKAKREAREAREAENANLELESKAEEHVEEAGSKEQICNDENIKESSDLNEVFEDADDDGDWITPENLTEAIIKDSGEDTTGSLGVEASEEDRHVALNRPENQVALATGDFAVQNVALQMNLNLMNFMSGLKIKRIRNYMLRCHACFKIFPLPKDGKPKHFCASCGGQGTLLRCAVSVDSRTGNVTPHLKSNFQWNNRGNRYSVASPLSKNSQKRYGKKGHVHSKPQENVILREDQKEYEKVIKQEEWTRRHNEKILNNWIGGGSADNYISPFAITGLKQHNVRIGKGRYVNSSKRRS
binding: binds
